Reference: PMC10931229
Results are given in words; binding and its absence hold for the method and conditions named. In cells and extracts the contact can be indirect. Some binding calls cover weakened binding; strength is not graded here. Where a sequence is shown, tags or fusion partners need not be part of it.

T1: AUP1-V5 (human) (UniProt Q9Y679)
T1 sequence: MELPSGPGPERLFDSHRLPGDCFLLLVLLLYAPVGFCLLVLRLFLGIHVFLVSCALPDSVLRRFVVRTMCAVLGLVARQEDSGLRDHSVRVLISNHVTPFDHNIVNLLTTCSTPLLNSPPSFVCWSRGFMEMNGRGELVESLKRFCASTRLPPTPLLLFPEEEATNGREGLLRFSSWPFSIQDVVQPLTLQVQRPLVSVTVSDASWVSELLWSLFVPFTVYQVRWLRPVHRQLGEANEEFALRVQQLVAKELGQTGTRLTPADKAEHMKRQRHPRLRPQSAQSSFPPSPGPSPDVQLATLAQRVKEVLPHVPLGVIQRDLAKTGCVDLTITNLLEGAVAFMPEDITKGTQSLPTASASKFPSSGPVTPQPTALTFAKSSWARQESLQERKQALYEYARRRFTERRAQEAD

T2: endogenous AUP1 of HEK cells (human (endogenous in HEK)) (UniProt Q9Y679)
T2 sequence: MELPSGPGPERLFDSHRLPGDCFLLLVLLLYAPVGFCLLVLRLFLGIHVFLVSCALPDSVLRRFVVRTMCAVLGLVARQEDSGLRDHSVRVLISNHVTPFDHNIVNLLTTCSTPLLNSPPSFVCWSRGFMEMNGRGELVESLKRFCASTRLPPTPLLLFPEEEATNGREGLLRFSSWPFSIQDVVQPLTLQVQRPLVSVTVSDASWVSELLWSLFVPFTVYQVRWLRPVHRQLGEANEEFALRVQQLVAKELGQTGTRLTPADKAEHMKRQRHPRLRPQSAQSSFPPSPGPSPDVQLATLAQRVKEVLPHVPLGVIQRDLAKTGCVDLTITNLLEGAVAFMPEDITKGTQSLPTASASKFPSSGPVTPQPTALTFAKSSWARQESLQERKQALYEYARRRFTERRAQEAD


How the values were obtained:
[1] = target: T1, AUP1-V5 (human); test: co-IP; OKP cells transfected with the Myc-tagged cotransporter and AUP1-V5; lysates precipitated with anti-V5 and protein G beads, blot with anti-Myc
[2] = target: T2, endogenous AUP1 of HEK cells (human (endogenous in HEK)); test: co-IP; HEK cells expressing Myc-NKCC2; endogenous AUP1 precipitated with anti-AUP1, blot with anti-Myc
[3] = target: T1, AUP1-V5 (human); test: co-IP; HEK cells transfected with Myc-NKCC2 and AUP1-V5; lysates precipitated with anti-V5 and protein G beads, blot with anti-Myc

binding [1] | binding [2] | binding [3] | Binder
binds | – | – | Myc-NCC (protein, UniProt P55017 1-1021) MAELPTTETPGDATLCSGRFTISTLLSSDEPSPPAAYDSSHPSHLTHSSTFCMRTFGYNTIDVVPTYEHYANSTQPGEPRKVRPTLADLHSFLKQEGRHLHALAFDSRPSHEMTDGLVEGEAGTSSEKNPEEPVRFGWVKGVMIRCMLNIWGVILYLRLPWITAQAGIVLTWIIILLSVTVTSITGLSISAISTNGKVKSGGTYFLISRSLGPELGGSIGLIFAFANAVGVAMHTVGFAETVRDLLQEYGAPIVDPINDIRIIAVVSVTVLLAISLAGMEWESKAQVLFFLVIMVSFANYLVGTLIPPSEDKASKGFFSYRADIFVQNLVPDWRGPDGTFFGMFSIFFPSATGILAGANISGDLKDPAIAIPKGTLMAIFWTTISYLAISATIGSCVVRDASGVLNDTVTPGWGACEGLACSYGWNFTECTQQHSCHYGLINYYQTMSMVSGFAPLITAGIFGATLSSALACLVSAAKVFQCLCEDQLYPLIGFFGKGYGKNKEPVRGYLLAYAIAVAFIIIAELNTIAPIISNFFLCSYALINFSCFHASITNSPGWRPSFQYYNKWAALFGAIISVVIMFLLTWWAALIAIGVVLFLLLYVIYKKPEVNWGSSVQAGSYNLALSYSVGLNEVEDHIKNYRPQCLVLTGPPNFRPALVDFVGTFTRNLSLMICGHVLIGPHKQRMPELQLIANGHTKWLNKRKIKAFYSDVIAEDLRRGVQILMQAAGLGRMKPNILVVGFKKNWQSAHPATVEDYIGILHDAFDFNYGVCVMRMREGLNVSKMMQAHINPVFDPAEDGKEASARVDPKALVKEEQATTIFQSEQGKKTIDIYWLFDDGGLTLLIPYLLGRKRRWSKCKIRVFVGGQINRMDQERKAIISLLSKFRLGFHEVHILPDINQNPRAEHTKRFEDMIAPFRLNDGFKDEATVNEMRRDCPWKISDEEITKNRVKSLRQVRLNEIVLDYSRDAALIVITLPIGRKGKCPSSLYMAWLETLSQDLRPPVILIRGNQENVLTFYCQ
binds | binds | binds | Myc-NKCC2 (protein, UniProt P55014 1-1095) MSVSIPSNSVPSSASRFQVHVINEGHGSAAAVGDSADPPHYEETSFGDEAQNRLRISFRPGNQECYDNFLQTGETAKTDTTFHAYDSHTNTYYLQTFGHNTMDAVPKIEYYRNTGSVSGPKVNRPSLLEIHEQLAKNVTVAPGSADRVANGDGMPGDEQAENKEEDMTGVVKFGWVKGVLVRCMLNIWGVMLFIRLSWIVGEAGIGLGVLIILLSTMVTSITGLSTSAIATNGFVRGGGAYYLISRSLGPEFGGSIGLIFAFANAVAVAMYVVGFAETVVDLLKESDSMMVDPTNDIRIIGSITVVILLGISVAGMEWEAKAQVILLVILLIAIANFFIGTVIPSNNEKKSRGFFNYQASIFAENFGPSFTKGEGFFSVFAIFFPAATGILAGANISGDLEDPQDAIPRGTMLAIFITTVAYIGVAICVAACVVRDATGSMNDTIVSGMNCNGSAACGLGYDFSRCQHEPCQYGLMNNFQVMSMVSGFGPLITAGIFSATLSSALASLVSAPKVFQALCKDNIFKGLQFFAKGYGKNNEPLRGYFLTFVIAMAFILIAELNVIAPIISNFFLASYALINFSCFHASYAKSPGWRPAYGIYNMWVSLFGAILCCAVMFVINWWAAVITYVIELFLYIYVTYKKPDVNWGSSTQALSYVSALDNALELTTVEDHVKNFRPQCIVLTGGPMTRPALLDITHAFTKNSGLCICCEVFVGPRKLCVKEMNSGMAKKQAWLIKNKIKAFYAAVAADCFRDGVRSLLQASGLGRMKPNTLVIGYKKNWRKAPLSELENYVGIIHDAFDFEIGVVIVRISQGFDISPVLQVQDELEKLEQERLALEAAIKDNECEEGKGGIRGLFKKAGKLNITKPAPKKDGNISSIQSMHVGEFNQKLVEASAQFKKKQGKGTIDVWWLFDDGGLTLLIPYILTLRKKWKDCKLRIYVGGKITRIEEEKISMASLLSKFRIKFADIHIIGDINIKPNKESWKVFEEMIEPYRLHESHKDLTTAEKLKRESPWKITDAELEAVKEKSYRQVRLNELLQEHSRAANLIVLSLPVARKGSISDLLYMAWLEILTKNLPPVLLVRGNHKNVLTFYS
